Assay results taken from PubChem BioAssay AID1508600 (Functional Genomics Laboratory (NCATS/FGL), 2020).
Screen size: about 53,000 sequences; about 3,700 (7%) were called active.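 The calls were made as follows: active = gene knockdowns whose robust z-score for IL-1 alpha signal is at least 2 or at most -2, so actives lie on both sides; inactive = the rest.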 The list shows a part of the results.

Test: Components of the Cytosolic LPS Sensing Pathway: Gene Identification via Genome-wide siRNA Screen;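 also: robust z of the log signal after scaling to non-targeting control siRNA wells of the plate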
Conditions: RAW264.7 macrophages, IL-1a HTRF, actives lie on both sides, screened at 100 nM (by protocol), cells primed 5 h with Pam3CSK4 first
How it was run: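 RAW264.7; siRNA 100 nM final, RNAiMAX, 48h 37 degrees C; Pam3CSK4 5 h; LipidA + TransIT-TKO 24 h; IL-1a HTRF; CellTiter-Glo viability; robust z vs negative-control median.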

Row | Sequence | z-score
1 | GGUGCUGUGUGAGCUUUCATT against Zfp85os | inactive: -1.47
2 | CCUUAAUAAAUCUAGUGGCTT against Stmn3 | inactive: -0.567
3 | GGUCAAGUGUAAGAUGUUUTT against Dcps | inactive: -1.29
4 | GGUCAUUCUGUACAUACAUTT against Slc37a3 | inactive: -0.257
5 | GGAAAUAUGAUCCAUCCUGTT against Zfp282 | inactive: 1.36
6 | CCAUGUUCAGAAGAGAAUATT against Igsf11 | inactive: -1.69
7 | GGACGAGAGCACCUGAAAUTT against Efhb | inactive: -0.00509
8 | GCAAAUAGGGAGGUUCCUGTT against Ypel1 | inactive: 1.47
9 | GGCUUAGUAUGUUGUAUUCTT against Fam241b | inactive: 0.189
10 | GGAUUAUGAGAAUCAAACCTT against Serpina10 | inactive: -0.399
11 | GGAAAAUUGAUAGCAAGCUTT against Fbxw15 | inactive: 1.9
12 | CGGAAUGAACAUCAUGCUCTT against Pifo | inactive: -1.07
13 | GCGACCAGGACCGCGUCAATT against Sox3 | inactive: -1.07
14 | GGUCUUCUAUGGGAUCAUGTT against Entpd6 | inactive: -0.402
15 | GGAAGAGUCUAAUUAAAGGTT against Rab27b | inactive: 0.0195
16 | GCUUGAUCAACAAGUGGAGTT against Nup62 | active: -2.13
17 | GGAGAAAGAAACUCUCAGATT against 2610301B20Rik | inactive: 0.0975
18 | GGAUGGUGAUAAAAACAACTT against Tnnc2 | inactive: 0.173
19 | GGAGAACUUUUUGAUAGAATT against Chek1 | inactive: -0.324
20 | GGAAACAUUAGAAUCUUGUTT against Lin52 | active: -2.23
21 | GGCAACCAUUAAAUGUUUATT against Trim59 | inactive: -0.54
22 | CCUUGUCAUUGCACUCCAATT against Tm6sf2 | inactive: -1.03
23 | GCCAGAGACACGAUCCUCUTT against Ints12 | inactive: -1.82
24 | GGCGCAUUCAUGUAUCUUCTT against Olfr908 | inactive: 0.00978
25 | CCUACCUGGUAGCAAGAAATT against Gphn | inactive: -1.45
26 | GCCCAUUGUAAUAAAAGCCTT against Dnali1 | inactive: -0.582
27 | CCCAGGUGAGGAUUGAUAATT against Rit2 | inactive: 0.667
28 | GGAGAAAAAUCCUACCGACTT against Zmym5 | inactive: 0.56
29 | GGCCAAGAAGAAGAAGAGATT against Ttf1 | inactive: 0.053

Shown as labelled records: entries from further up
GGUGCUGUGUGAGCUUUCATT against Zfp85os
  z-score: inactive: -1.47
GGCCAAGAAGAAGAAGAGATT against Ttf1
  z-score: inactive: 0.053
